Values from PubChem BioAssay AID686943 (Drosophila RNAi Screening Center, 2013).
In all, the deposit lists about 23,000 reagents; this is a random part of those that have a named target and a result. 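Extra replicates exist only for a retested subset of genes; insulin dose and duration not given; both raised and lowered dpERK matter.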 The numbers tell different reagents against one gene apart. Names joined by + are all predicted targets of the reagent. Not all columns of the deposit are shown. Reagent sequences are not shown. Not given: the amount of reagent, the time to read-out.

Purpose: 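Search across the genome for regulators of signalling from receptor tyrosine kinase to ERK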 (primary screen)
Cell system: Drosophila S2R+ haemocyte-like cells expressing YFP-tagged ERK (Rolled)
Reagent: long dsRNA against Drosophila genes
Treatment: insulin stimulation versus unstimulated cells; dose and duration not given
Detection: 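Antibody staining for doubly phosphorylated ERK divided by ERK-YFP signal, as plate z-scores, in insulin-treated and untreated cells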
Reading the numbers: replicate 1, z-score of dpERK with insulin and replicate 2, z-score of dpERK with insulin: higher = more active ERK per ERK-YFP after insulin

gene | dsRNA no. | replicate 1, z-score of dpERK with insulin | replicate 2, z-score of dpERK with insulin
CG15308 (GeneID 50415) | 1 | 0.15 | 0.4
CG44153 (GeneID 34341) | 1 | -0.24 | -0.4
CG44153 (GeneID 34341) | 2 | -0.04 | 0.16
CG44153 (GeneID 34341) | 3 | -0.35 | 0.14
CG44153 (GeneID 34341) | 4 | -0.21 | 0.58
CG44153 (GeneID 34341) | 5 | -0.76 | -1.02
CG44153 (GeneID 34341) | 6 | -0.67 | -0.29
CG44153 (GeneID 34341) | 7 | -1.54 | -0.35
CG13130 (retired record) (GeneID 50439) | 1 | -5.8 | -5
toe (GeneID 39418) | 1 | 0.2 | 0.51
toe (GeneID 39418) | 2 | -0.39 | 0.05
Gk2 (GeneID 38221) | 1 | 0.46 | 0.12
JMJD5 (GeneID 38097) | 1 | -0.41 | -0.29
bru2 (GeneID 250811) | 1 | -0.64 | -1.55
bru2 (GeneID 250811) | 2 | -6.47 | -3.18
bru2 (GeneID 250811) | 3 | 0.9 | 0.18
bru2 (GeneID 250811) | 4 | -0.93 | 0.36
bru2 (GeneID 250811) | 5 | -0.54 | -1.52
CG13060 (GeneID 39802) | 1 | -0.43 | 0.4
Oli (GeneID 35066) | 1 | 0.15 | 0.15

Reprinted from the listing, 3 entries:
gene | dsRNA no. | replicate 1, z-score of dpERK with insulin | replicate 2, z-score of dpERK with insulin
CG44153 (GeneID 34341) | 3 | -0.35 | 0.14
CG44153 (GeneID 34341) | 4 | -0.21 | 0.58
CG44153 (GeneID 34341) | 5 | -0.76 | -1.02

Next reagents follow:
gene | dsRNA no. | replicate 1, z-score of dpERK with insulin | replicate 2, z-score of dpERK with insulin
Duox (GeneID 33477) | 1 | -0.23 | -0.37
CG42709 (GeneID 39453) | 1 | 0.05 | -1.26
elB (GeneID 34844) | 1 | 0.26 | 0.17
Acbp1 (GeneID 34111) | 1 | 0.8 | 0.03
Idua (GeneID 34544) | 1 | -0.45 | 0.32
RpL10 (GeneID 43864) | 1 | -3.41 | -1.74
CG13124 (GeneID 34310) | 1 | 0.14 | 0.03
CG12480 (GeneID 32359) | 1 | 1.31 | 0.71
trio (GeneID 43974) | 1 | 0.64 | -0.17
trio (GeneID 43974) | 2 | -9.26 | -6.52
trio (GeneID 43974) | 3 | -0.37 | -1.28
Rgl (GeneID 44115) | 1 | 2.09 | -0.32
CG15923 (GeneID 42443) | 1 | 0.76 | 0.36
CG13409 (GeneID 42592) | 1 | -1.32 | 0.18
CG32536 + CG32537 | 1 | -0.17 | -1.68
CG32554 (GeneID 32767) | 1 | 0.32 | 1.02
eIF3a (GeneID 40563) | 1 | -2.04 | -0.5
CG14965 (GeneID 38388) | 1 | 0.15 | -0.01
CG12170 (GeneID 40692) | 1 | 1.07 | 0.35
